# Data as given in the supplement of paper PMC8426693.
# The list shows a part of the results.
# Columns and labels:
# Assay in all cases: NMR binding call after quantification (hit when 2 of 3 NMR criteria are met) (binary (1 = binding, 0 = not binding)); higher = binding
# Conditions in all cases: RNA concentration 10 µM; fragment concentration 200 µM; 293 K
# SARS-CoV-2 5'-UTR RNA = test system: SARS-CoV-2 5'-UTR RNA
# SARS-CoV-2 5_SL1 RNA = test system: SARS-CoV-2 5_SL1 RNA
# SARS-CoV-2 5_SL1234 RNA = test system: SARS-CoV-2 5_SL1234 RNA
# SARS-CoV-2 5_SL2+3 RNA = test system: SARS-CoV-2 5_SL2+3 RNA
# SARS-CoV-2 5_SL4 RNA = test system: SARS-CoV-2 5_SL4 RNA
# SARS-CoV-2 5_SL5 RNA = test system: SARS-CoV-2 5_SL5 RNA
# SARS-CoV-2 5_SL5a RNA = test system: SARS-CoV-2 5_SL5a RNA
# SARS-CoV-2 5_SL5b+c RNA = test system: SARS-CoV-2 5_SL5b+c RNA
# SARS-CoV-2 5_SL5stem RNA = test system: SARS-CoV-2 5_SL5stem RNA
# SARS-CoV-2 5_SL6 RNA = test system: SARS-CoV-2 5_SL6 RNA
SMILES,NMR binding call (SARS-CoV-2 5'-UTR RNA),NMR binding call (SARS-CoV-2 5_SL1 RNA),NMR binding call (SARS-CoV-2 5_SL1234 RNA),NMR binding call (SARS-CoV-2 5_SL2+3 RNA),NMR binding call (SARS-CoV-2 5_SL4 RNA),NMR binding call (SARS-CoV-2 5_SL5 RNA),NMR binding call (SARS-CoV-2 5_SL5a RNA),NMR binding call (SARS-CoV-2 5_SL5b+c RNA),NMR binding call (SARS-CoV-2 5_SL5stem RNA),NMR binding call (SARS-CoV-2 5_SL6 RNA)
CC(NC1CC1)c1cccnc1 (stereo not given),0,0,0,0,0,0,0,0,0,0
COc1ccc(C(=O)NCC(N)=O)cc1,0,0,0,0,0,0,0,0,0,0
O=C(c1c(F)cccc1F)N1CCCC1,0,0,0,0,0,0,0,0,0,0
C1CC(c2nc(C3CC3)no2)CN1 (stereo not given),0,0,0,0,0,0,0,0,0,0
C1CC(Cc2nc(C3CC3)no2)CCN1,0,0,0,0,0,0,0,0,0,0
CC1CN(S(C)(=O)=O)CCC1N (stereo not given),0,0,0,0,0,0,0,0,0,0
Cc1c(Cl)cccc1NC(=O)C1CCCO1 (stereo not given),0,0,0,0,0,0,0,0,0,0
O=C(CC1CCCCC1)Nc1cccnc1,0,0,0,0,0,0,0,0,0,0
Cc1cnc(NC(=O)CCC2CCCC2)s1,0,0,0,0,0,0,0,0,0,0
C(#Cc1ccccc1)CN1CCCCC1,0,0,0,0,0,0,0,0,0,0
Cc1cc(C(=O)NCC2CCOC2)on1 (stereo not given),0,0,0,0,0,0,0,0,0,0
CCC(CO)NC(=O)Nc1ccc(Cl)cc1 (stereo not given),0,0,0,0,0,0,0,0,0,0
CCNCc1cccc2[nH]ccc12,1,0,0,0,0,0,0,0,0,0
CC(CO)Nc1ncc(Cl)cc1F (stereo not given),0,0,0,0,0,0,0,0,0,0
CC(N)C(=O)N1CCCCC1C (stereo not given),0,0,0,0,0,0,0,0,0,0
CC(=O)NCc1ccc(S(N)(=O)=O)cc1,0,0,0,0,0,0,0,0,0,0
CNc1nccnc1C#N,0,0,0,0,0,0,0,0,0,0
Nc1cccc(OCc2ccccc2)c1,0,0,0,0,0,0,0,0,0,0

SMILES,NMR binding call (SARS-CoV-2 5'-UTR RNA),NMR binding call (SARS-CoV-2 5_SL1 RNA),NMR binding call (SARS-CoV-2 5_SL1234 RNA),NMR binding call (SARS-CoV-2 5_SL2+3 RNA),NMR binding call (SARS-CoV-2 5_SL4 RNA),NMR binding call (SARS-CoV-2 5_SL5 RNA),NMR binding call (SARS-CoV-2 5_SL5a RNA),NMR binding call (SARS-CoV-2 5_SL5b+c RNA),NMR binding call (SARS-CoV-2 5_SL5stem RNA),NMR binding call (SARS-CoV-2 5_SL6 RNA)
CCOC(=O)Nc1sccc1C(N)=O,0,0,0,0,0,0,0,0,0,0
OC1CN(C(c2ccccc2)c2ccccc2)C1,0,0,0,0,0,0,0,0,0,0
CCOC(=O)CN1CCS(=O)(=O)CC1,0,0,0,0,0,0,0,0,0,0
CC1CN(C(=O)Cn2cccn2)CCO1 (stereo not given),0,0,0,0,0,0,0,0,0,0
Cc1nn(C)c(C)c1CN1CCNCC1,0,0,0,0,0,0,0,0,0,0
CN(CC(=O)O)C(=O)c1ccccn1,0,0,0,0,0,0,0,0,0,0
Cc1nn(C)c(C)c1CC(N)=O,0,0,0,0,0,0,0,0,0,0
COc1cccc2[nH]ccc12,0,0,0,0,0,0,0,0,0,0
Cc1ccc(NC(=O)c2ccccc2C)c(O)c1,0,0,0,0,0,0,0,0,0,0
CC(O)CNC(=O)Nc1ccccc1 (stereo not given),0,0,0,0,0,0,0,0,0,0
CC(CS(N)(=O)=O)c1ccccc1 (stereo not given),0,0,0,0,0,0,0,0,0,0
CS(=O)(=O)CC(O)c1ccccc1 (stereo not given),0,0,0,0,0,0,0,0,0,0
O=C(O)Cc1ccc(-c2ccccc2)cc1,0,0,0,0,0,0,0,0,0,0
COC(=O)c1ccncc1,0,0,0,0,0,0,0,0,0,0
CCOc1c(F)cccc1C(=O)N(C)C,0,0,0,0,0,0,0,0,0,0
O=c1[nH]cc(N2CCOCC2)c(=O)[nH]1,0,0,0,0,0,0,0,0,0,0
CC(Cc1ccc(Br)cc1)C(N)=O (stereo not given),0,0,0,0,0,0,0,0,0,0
CC(=O)NCCc1ccc(S(N)(=O)=O)cc1,0,0,0,0,0,0,0,0,0,0

# 8 entries out of the list, sorted by SMILES length, smallest number first:
SMILES,NMR binding call (SARS-CoV-2 5'-UTR RNA),NMR binding call (SARS-CoV-2 5_SL1 RNA),NMR binding call (SARS-CoV-2 5_SL1234 RNA),NMR binding call (SARS-CoV-2 5_SL2+3 RNA),NMR binding call (SARS-CoV-2 5_SL4 RNA),NMR binding call (SARS-CoV-2 5_SL5 RNA),NMR binding call (SARS-CoV-2 5_SL5a RNA),NMR binding call (SARS-CoV-2 5_SL5b+c RNA),NMR binding call (SARS-CoV-2 5_SL5stem RNA),NMR binding call (SARS-CoV-2 5_SL6 RNA)
COC(=O)c1ccncc1,0,0,0,0,0,0,0,0,0,0
COc1cccc2[nH]ccc12,0,0,0,0,0,0,0,0,0,0
Cc1nn(C)c(C)c1CC(N)=O,0,0,0,0,0,0,0,0,0,0
CC(Cc1ccc(Br)cc1)C(N)=O (stereo not given),0,0,0,0,0,0,0,0,0,0
CCOC(=O)CN1CCS(=O)(=O)CC1,0,0,0,0,0,0,0,0,0,0
O=C(O)Cc1ccc(-c2ccccc2)cc1,0,0,0,0,0,0,0,0,0,0
CC(=O)NCCc1ccc(S(N)(=O)=O)cc1,0,0,0,0,0,0,0,0,0,0
O=c1[nH]cc(N2CCOCC2)c(=O)[nH]1,0,0,0,0,0,0,0,0,0,0
